Reference: PubChem BioAssay (Tox21)
This list was built around the results that the source calls inconclusive (neither active nor inactive); the mix of calls is not that of the screen. For some assays here: A potency beside an inconclusive call is a rough fit, not a confirmed value. Activity calls are given as the source filed them. Unless noted, calls follow the shape of the full dose curve.

Sequences of proteins named here, by UniProt entry; tags and fusion partners are left off.
UniProt P14416, whole entry, looked up: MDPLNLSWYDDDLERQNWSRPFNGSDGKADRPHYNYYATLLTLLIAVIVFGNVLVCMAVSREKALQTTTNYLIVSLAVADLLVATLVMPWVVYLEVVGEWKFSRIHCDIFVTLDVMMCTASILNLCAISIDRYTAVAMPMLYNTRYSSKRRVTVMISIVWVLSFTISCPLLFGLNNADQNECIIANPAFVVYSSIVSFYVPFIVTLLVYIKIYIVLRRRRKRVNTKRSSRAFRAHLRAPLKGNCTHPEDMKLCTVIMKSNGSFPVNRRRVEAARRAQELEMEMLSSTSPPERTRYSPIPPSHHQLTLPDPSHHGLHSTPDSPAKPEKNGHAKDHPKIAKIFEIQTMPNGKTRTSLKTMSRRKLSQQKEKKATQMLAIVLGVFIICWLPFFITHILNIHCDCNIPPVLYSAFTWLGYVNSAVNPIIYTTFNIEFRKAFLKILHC

Each molecule was assayed against Beta-2 adrenergic receptor (Homo sapiens) (UniProt P07550) (assay: Adrenergic beta2 receptor (ADRB2) small molecule agonists, cell-based qHTS assay (AID 1963593;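 also: CHO cells stably overexpressing human ADRB2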)). Settings: CHO-ADRB2 cells, cAMP HTRF, 30 min; at 92.4 µM (top of the series).
Outline: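 CHO cells stably over-expressing ADRB2 were plated overnight at 37C, then dosed with compounds plus a stimulation mix containing 100uM IBMX and 25uM Ro-20-1724 for 0.5hr at room temperature. cAMP was measured by HTRF competition, 1hr.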
% is scaled to controls: 0 for no effect and ±100 for the full control effect.

Structure (SMILES)	activation
CN(C)CCO	inactive: -16.3%
CC(=O)C=C(C)C	inactive: 1.95%
N#Cc1cc(Br)c(O)c(Br)c1	inactive: -23.9%
Clc1ccccc1-c1nnc(-c2ccccc2Cl)nn1	inactive: -21.6%
CC(C)(C#N)N=NC(C)(C)C#N	inactive: 2.88%

These molecules were tested against D(2) dopamine receptor (Homo sapiens) (UniProt P14416) (assay: Dopamine D2 receptor (DRD2) small molecule agonists, cell-based qHTS assay (AID 1963594; also: nearly all actives have a fitted effect of over 35% in size; also: potency is read from the fitted curve at half-maximal effect)). Settings: HEK293-DRD2 cAMP HTRF, agonist mode, 30 min; activation: at 92.4 µM (top of the series) unless noted.
Outline: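 HEK293 cells stably expressing DRD2 were cultured 24 h at 37 C, then given Ro20-1724 (0.1 mM final) and compounds for 10 min at room temperature. NKH477 (200nM) was then added for 30 min. cAMP was read by HTRF.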

Structure (SMILES)	activation	Potency
COCc1cnc(C2=NC(C)(C(C)C)C(=O)N2)c(C(=O)O)c1 (stereo not given)	inconclusive: 16.8%	–
NCc1cccnc1	–	inactive
CCC[N+]1(C)CCCCC1	–	inactive
O=P1(NCCCl)OCCCN1CCCl (stereo not given)	–	inconclusive: 0.841 µM
CCC(=O)C(CCN(C)C)(c1ccccc1)c1ccccc1	–	inactive
BrCC(Br)C1CCC(Br)C(Br)C1 (stereo not given)	–	inactive
CCOC(=O)C1(c2ccccc2)CCN(CCC(C#N)(c2ccccc2)c2ccccc2)CC1	inconclusive: -2.06% [at 42.5 µM]	–
Clc1ccccc1-c1nnc(-c2ccccc2Cl)nn1	–	inconclusive: 68.4 µM [rising, single point]

Entries of single compounds as entered above.
BrCC(Br)C1CCC(Br)C(Br)C1 (stereo not given) in the list: Potency: inactive
O=P1(NCCCl)OCCCN1CCCl (stereo not given) in the list: Potency: inconclusive: 0.841 µM

The molecules below were run against D(2) dopamine receptor (Homo sapiens) (UniProt P14416) (assay: Dopamine D2 receptor (DRD2) small molecule antagonists, cell-based qHTS assay (AID 1963595; active = well fitted inhibition curve with a large enough effect in the signal ratio in the repeat runs, with a control signal flat; inconclusive = weak or mixed curves, or effect the other way; the % refers to the signal ratio; also: potency is read from the fitted curve at half-maximal effect)). Settings: HEK293-DRD2 cAMP HTRF antagonist mode; activity change, negative = inhibition: at 92.4 µM (top of the series) unless noted.
Outline: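 Antagonist mode in DRD2-HEK293 cells: after compound addition with 0.1 mM Ro20-1724, cells received quinpirole (12 nM) and NKH477 (200 nM) for 30 min at room temperature; HTRF cAMP read after 1 h detection.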

Structure (SMILES)	Potency
CN(C)CCO	inactive
CC1(c2ccc(Oc3ccccc3)cc2)OC(=O)N(Nc2ccccc2)C1=O (stereo not given)	inactive
O=C(NC(=O)c1c(F)cccc1F)Nc1ccc(Oc2ccc(C(F)(F)F)cc2Cl)cc1F	inconclusive: 0.0022 µM [rising, full curve, poor fit]
O=C1NCN(c2ccccc2)C12CCN(CC1COc3ccccc3O1)CC2 (stereo not given)	active: 0.0376 µM
CCC(C)(NC(=O)c1cc(Cl)c(C)c(Cl)c1)C(=O)CCl (stereo not given)	inconclusive: 69 µM [inhibitor]
BrCC(Br)C1CCC(Br)C(Br)C1 (stereo not given)	inactive
Fc1ccc(C(OCCN2CCN(CCCc3ccccc3)CC2)c2ccc(F)cc2)cc1	active: 26.6 µM
